This note sets out measurements from PMC4186791.

The chains behind the UniProt entries cited, without tags or fusion partners. Where a name states a change or a piece, a line headed by the entry shows the natural chain unless it says otherwise. A line that says so, or that is headed by a name, gives the form on record, which may keep a tag or linker.
UniProt P83949: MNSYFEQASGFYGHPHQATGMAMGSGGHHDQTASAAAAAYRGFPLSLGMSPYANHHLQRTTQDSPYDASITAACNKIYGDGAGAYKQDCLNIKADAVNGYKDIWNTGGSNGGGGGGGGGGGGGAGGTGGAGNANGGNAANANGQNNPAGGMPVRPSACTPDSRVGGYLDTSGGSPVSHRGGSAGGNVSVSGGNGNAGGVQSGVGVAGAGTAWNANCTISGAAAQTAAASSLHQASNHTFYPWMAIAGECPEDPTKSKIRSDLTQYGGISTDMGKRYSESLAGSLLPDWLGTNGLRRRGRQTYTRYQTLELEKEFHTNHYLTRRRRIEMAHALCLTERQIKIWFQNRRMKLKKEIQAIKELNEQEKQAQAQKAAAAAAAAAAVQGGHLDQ
UbxIb Pro4 (P83949, form named): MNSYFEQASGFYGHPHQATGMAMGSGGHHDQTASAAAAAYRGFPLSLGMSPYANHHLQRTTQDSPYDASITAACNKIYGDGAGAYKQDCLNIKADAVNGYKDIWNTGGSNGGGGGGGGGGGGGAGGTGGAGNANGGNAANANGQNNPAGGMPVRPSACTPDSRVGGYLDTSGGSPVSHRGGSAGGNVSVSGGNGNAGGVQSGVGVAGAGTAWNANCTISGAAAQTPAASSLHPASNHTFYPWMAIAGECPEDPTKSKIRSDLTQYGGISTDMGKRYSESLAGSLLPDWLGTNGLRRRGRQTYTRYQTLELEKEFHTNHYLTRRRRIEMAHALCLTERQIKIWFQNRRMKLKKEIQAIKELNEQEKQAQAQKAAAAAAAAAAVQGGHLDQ
UbxIb N103 Pro4 (P83949, form named): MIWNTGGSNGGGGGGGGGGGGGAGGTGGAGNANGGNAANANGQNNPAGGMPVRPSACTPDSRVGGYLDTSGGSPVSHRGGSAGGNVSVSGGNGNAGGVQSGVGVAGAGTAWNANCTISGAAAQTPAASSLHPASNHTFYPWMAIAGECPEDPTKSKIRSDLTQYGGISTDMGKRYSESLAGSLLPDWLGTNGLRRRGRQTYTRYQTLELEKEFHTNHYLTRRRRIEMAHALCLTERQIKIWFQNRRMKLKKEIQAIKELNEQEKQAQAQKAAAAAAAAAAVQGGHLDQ
UbxIb Δ103–216 (P83949, form named): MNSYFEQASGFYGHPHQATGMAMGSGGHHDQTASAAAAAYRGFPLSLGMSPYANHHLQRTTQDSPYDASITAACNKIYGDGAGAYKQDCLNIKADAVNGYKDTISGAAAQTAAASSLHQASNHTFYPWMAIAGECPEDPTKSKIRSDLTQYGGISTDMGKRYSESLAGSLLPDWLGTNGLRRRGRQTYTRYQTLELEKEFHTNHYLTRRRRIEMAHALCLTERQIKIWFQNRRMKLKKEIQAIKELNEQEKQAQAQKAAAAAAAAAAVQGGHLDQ

Holding throughout (assay): two-hybrid; LexA-Ubx variant (pLexA) and B42-partner (pB42) co-transformed into S. cerevisiae EGY48 carrying p8op-LacZ; blue/white colonies on X-gal and liquid β-galactosidase (ONPG) assay after galactose induction at 30°C, reported in Miller units
For test [1], the target named is UbxIb Pro4 (Drosophila melanogaster) (UniProt P83949).
Test [2] has as its target UbxIb N103 Pro4 (Drosophila melanogaster) (UniProt P83949).
Test [3] has as its target UbxIb Δ103–216 (Drosophila melanogaster) (UniProt P83949).

Results are given in words; binding and its absence hold for the method and conditions named. Some entries that bind do so weakly or less than the wild type.

B1: Protease p44.5 subunit (protein, UniProt Q7KLV9 1-422)
chain: MAGATLFERAQALSSVNREEQDSSLLNKLVRDQEGAENDEERIRIKEQGILQQGELYKQEGKAKELADLIKVTRPFLSSISKAKAAKLVRSLVDMFLDMDAGTGIEVQLCKDCIEWAKQEKRTFLRQSLEARLIALYFDTALYTEALALGAQLLRELKKLDDKNLLVEVQLLESKTYHALSNLPKARAALTSARTTANAIYCPPKVQGALDLQSGILHAADERDFKTAFSYFYEAFEGFDSVDSVKALTSLKYMLLCKIMLGQSDDVNQLVSGKLAITYSGRDIDAMKSVAEASHKRSLADFQAALKEYKKELAEDVIVQAHLGTLYDTMLEQNLCRIIEPYSRVQVAHVAESIQLPMPQVEKKLSQMILDKKFSGILDQGEGVLIVFEETPVDKTYERVLETIQSMGKVVDTLYQKAKKLS
For B1, in test [1], the binding entry is “binds”.

B2: single α-α superhelix domain from Arm (amino acids 155–273) (domain or fragment, UniProt P18824 155-273)
chain: ELATRAIPELIKLLNDEDQVVVSQAAMMVHQLSKKEASRHAIMNSPQMVAALVRAISNSNDLESTKAAVGTLHNLSHHRQGLLAIFKSGGIPALVKLLSSPVESVLFYAITTLHNLLLH
Turning to B2, the binding result in test [1] is on record as “binds”.

B3: Cap-binding protein 1 (protein, UniProt Q7K4N3 1-800)
chain: MSRRRAHDTEDEGYDHRRNKRRRVSENQEIEDRLESLILRVGERSTSSVESNLEGLVSVLEADLGTFRLKILRILSDCAVRMPEKCTVYTTLVGLLNAKNYKFGGEFVDHMVKTFKESLKMCRWDAARYSLRFLADLVNCHVISATSLLQLLDTMIDVSNEDTVPQVRRDWFVFAVLSTLPWVGRDLYEKKESALESLLLRIEVYLNKRSKKHHNALRVWSSDAPHPQEEYLDCLWAQIRKLRQDNWAEKHIPRPYLVFDSILCEALQHNLPTIVPPPHHDNFEYPMPWVVYRMFDYTDCPDGPNLPGAHSIERFLIEEHLHHIIETYHHERKDCAAQLLSFPYKHKIPLEYCIVEVVFAELFHMPTPRYLDICYGSILIELCKLQPATLPQVLAQATEILFMRIDSMNTSCFDRFVNWFSYHLSNFKFTWSWDEWDSCLLLDGEHPRPKFIQEVLQKCLRLSYHQRITEMMPTTYAKLIPLTPVPNYKYANEEAANLPGTTVAHQLVVAIRQKCTPEEVVNILKDIPNSGYSGEEMSDGSFNALKIDVFVQTLLNLGSKSFSHSFAAISKFHSVFRALAETEEAQICILHNIFELWSSHQQMMVVLIDKLLKLQIVDCSAVATWIFSKEMTGEFTKLYLWEILHLTIKKMNKHVIKLNTELSEAKEKLAKADSSSSDSEDDSSHKRKKPITHADKPSEEVVERMEEKLEAANVNQKRLFLIVFQRFIMILSEHLLRSDTDGRDPDTDWYRWTIGRLQQVFLMHHEQVQKYSSTLETLLFTSDLDTHILEVFQQFVALRA
Consider B3, for which the binding entry in test [2], in test [1] and in test [3] was “binds” throughout.

B4: Armadillo (protein, UniProt P18824 1-843)
chain: MSYMPAQNRTMSHNNQYNPPDLPPMVSAKEQTLMWQQNSYLGDSGIHSGAVTQVPSLSGKEDEEMEGDPLMFDLDTGFPQNFTQDQVDDMNQQLSQTRSQRVRAAMFPETLEEGIEIPSTQFDPQQPTAVQRLSEPSQMLKHAVVNLINYQDDAELATRAIPELIKLLNDEDQVVVSQAAMMVHQLSKKEASRHAIMNSPQMVAALVRAISNSNDLESTKAAVGTLHNLSHHRQGLLAIFKSGGIPALVKLLSSPVESVLFYAITTLHNLLLHQDGSKMAVRLAGGLQKMVTLLQRNNVKFLAIVTDCLQILAYGNQESKLIILASGGPNELVRIMRSYDYEKLLWTTSRVLKVLSVCSSNKPAIVDAGGMQALAMHLGNMSPRLVQNCLWTLRNLSDAATKVEGLEALLQSLVQVLGSTDVNVVTCAAGILSNLTCNNQRNKATVCQVGGVDALVRTIINAGDREEITEPAVCALRHLTSRHVDSELAQNAVRLNYGLSVIVKLLHPPSRWPLIKAVIGLIRNLALCPANHAPLREHGAIHHLVRLLMRAFQDTERQRSSIATTGSQQPSAYADGVRMEEIVEGTVGALHILARESHNRALIRQQSVIPIFVRLLFNEIENIQRVAAGVLCELAADKEGAEIIEQEGATGPLTDLLHSRNEGVATYAAAVLFRMSEDKPQDYKKRLSIELTNSLLREDNNIWANADLGMGPDLQDMLGPEEAYEGLYGQGPPSVHSSHGGRAFHQQGYDTLPIDSMQGLEISSPVGGGGAGGAPGNGGAVGGASGGGGNIGAIPPSGAPTSPYSMDMDVGEIDAGALNFDLDAMPTPPNDNNNLAAWYDTDC
In the case of B4, the binding result in test [2], in test [1] and in test [3] was “binds” throughout.
